Measurements reported in paper doi:10.1101/2020.09.10.288878.
No constants are given. Whether binding was seen depends on the method and setting. Binding calls can cover weak binding; strength is not graded here. Tags and fused reporters may be left off the sequences shown.

Amino acid sequences for entries named in this document (tags omitted). A change or cut given only in a name is not applied to a line headed by its entry.
UniProt P38283: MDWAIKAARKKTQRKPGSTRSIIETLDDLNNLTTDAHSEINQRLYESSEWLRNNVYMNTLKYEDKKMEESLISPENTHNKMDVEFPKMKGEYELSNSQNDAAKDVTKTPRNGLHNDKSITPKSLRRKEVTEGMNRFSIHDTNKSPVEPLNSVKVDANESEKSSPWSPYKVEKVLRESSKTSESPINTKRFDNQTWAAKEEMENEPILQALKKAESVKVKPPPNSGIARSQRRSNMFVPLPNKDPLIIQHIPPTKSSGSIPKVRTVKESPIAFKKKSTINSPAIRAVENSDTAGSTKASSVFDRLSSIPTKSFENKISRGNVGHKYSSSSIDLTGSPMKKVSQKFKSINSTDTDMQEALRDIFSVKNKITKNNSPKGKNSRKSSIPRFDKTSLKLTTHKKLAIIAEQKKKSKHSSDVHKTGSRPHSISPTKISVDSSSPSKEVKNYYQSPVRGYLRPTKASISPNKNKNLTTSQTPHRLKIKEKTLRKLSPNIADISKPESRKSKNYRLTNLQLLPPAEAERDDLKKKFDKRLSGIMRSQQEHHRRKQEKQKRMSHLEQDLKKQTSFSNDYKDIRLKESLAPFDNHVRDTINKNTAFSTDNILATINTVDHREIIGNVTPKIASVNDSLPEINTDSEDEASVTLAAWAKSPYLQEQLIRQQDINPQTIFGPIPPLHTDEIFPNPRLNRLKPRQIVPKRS

Target: Sli15 microtubule-binding (MTB) domain fused to the DNA binding domain of Gal4 (S. cerevisiae) (UniProt P38283)
Experiment: two-hybrid

B1: Dam1 fused to the activation domain of Gal4 (protein, UniProt P53267 1-343)
chain: MSEDKAKLGTTRSATEYRLSIGSAPTSRRSSMGESSSLMKFADQEGLTSSVGEYNENTIQQLLLPKIRELSDSIITLDSNFTRLNFIHESLADLNESLGSLLYGIMSNSWCVEFSQAPHDIQDDLIAIKQLKSLEDEKNNLVMELSNMERGIKRKKDEQGENDLAKASQNKQFNQPLFPSSQVRKYRSYDNRDKRKPSKIGNNLQVENEEDYEDDTSSEASFVLNPTNIGMSKSSQGHVTKTTRLNNNTNSKLRRKSILHTIRNSIASGADLPIENDNVVNLGDLHPNNRISLGSGAARVVNGPVTKNRNSMFSGRAERKPTESRHSVAKKTEKKINTRPPFR
- binding: binds
